{
  "source": "paper PMC6126876",
  "molecular_target": "T1, Flag-Whi2 (3xFLAG-Whi2, Saccharomyces cerevisiae) (Saccharomyces cerevisiae) (UniProt P12611)",
  "T1 sequence": "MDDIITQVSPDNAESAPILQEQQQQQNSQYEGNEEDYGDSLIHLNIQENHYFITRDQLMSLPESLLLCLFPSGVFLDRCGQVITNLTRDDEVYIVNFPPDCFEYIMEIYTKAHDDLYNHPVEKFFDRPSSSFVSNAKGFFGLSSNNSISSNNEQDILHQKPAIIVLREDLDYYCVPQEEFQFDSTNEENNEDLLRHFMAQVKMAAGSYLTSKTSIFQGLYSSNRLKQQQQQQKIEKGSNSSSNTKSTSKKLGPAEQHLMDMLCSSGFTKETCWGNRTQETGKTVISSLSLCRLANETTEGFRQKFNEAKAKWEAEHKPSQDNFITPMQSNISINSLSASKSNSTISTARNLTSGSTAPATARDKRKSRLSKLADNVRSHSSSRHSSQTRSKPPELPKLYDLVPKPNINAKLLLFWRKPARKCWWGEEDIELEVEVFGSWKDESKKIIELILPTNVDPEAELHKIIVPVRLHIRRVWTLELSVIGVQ",
  "assay": "co-IP; HA-Psr1 co-expressed with Flag-Whi2 or an empty vector in the WT (BY4741) yeast strain; anti-Flag immunoprecipitates analysed on immunoblots with anti-HA and anti-Flag",
  "note": "These are yes or no findings as the source states them, for the method shown. In cells and extracts the contact can be indirect. Some entries that bind do so weakly or less than the wild type. Sequences can lack the tags named with a protein.",
  "data": [
    {"binder": "HA-Psr1 (Saccharomyces cerevisiae protein phosphatase Psr1) (enzyme, UniProt Q07800 1-427) MGFISSILCCSSETTQSNSNSAYRQQQSSSLNKNRSVKHSNTKSRTRGVHQTNSPPSKTNSAATFSSTERSTGKSGISTNDNEKKKPSSPTAAVTATTTNNMTKVEKRISKDDLYEEKYEVDEDEEIDDEDNRRSRGIVQEKGDAVKDTSRQKKQQQQQQQQSQPQPQPQSQSQSQSQSQSQQRGPTVQVSSDHLIQDMNLSRVSSSSQASETSNDADDEDDEDEEYIDLTLLQQGQYHAPGYNTLLPPQDESTKGKKCLILDLDETLVHSSFKYLRSADFVLSVEIDDQVHNVYVIKRPGVEEFLERVGKLFEVVVFTASVSRYGDPLLDILDTDKVIHHRLFREACYNYEGNYIKNLSQIGRPLSDIIILDNSPASYIFHPQHAIPISSWFSDTHDNELLDIIPLLEDLSVKTSLDVGKILDVTI", "values": [
      {"measurement": "binding", "result": "binds"}
    ]}
  ]
}
